Assay results as given in PubChem BioAssay AID493014 (National Center for Advancing Translational Sciences (NCATS), 2011).
Screen size: about 340,000 compounds; about 170 (0.05%) were called active. Inconclusive means that the source gave no clear call. Such entries were picked first, then a sample of the others. Calls come from the whole dose curve; as a rule, active = well fitted inhibition curve with a large enough effect in the signal ratio, with a control signal flat (not every such curve was filed as active); inconclusive = small, poorly fitted or top-dose-only effect, or effect the other way, or a change in a side signal; inactive = flat fitted curve, though single readings scatter; the % refers to the signal ratio. Potencies beside an inconclusive call are fits to weak or partial responses and may not hold up.
Potency is the fitted concentration of half-maximal effect.

Test: qHTS Assay to Find Inhibitors of Chronic Active B-Cell Receptor Signaling;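 for activity change, negative = inhibition: plate controls were basal doxycycline-induced cells for no effect and cells given 10 µM MG132 for full effect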
Conditions: ABC-DLBCL IkBa-CBG/CBR reporter, luminescence ratio (green luciferase fused to IkBa over red control in TMD8 lymphoma cells), 4 h; activity change, negative = inhibition: at 46.1 µM (top of the series)
Outline: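 TMD8 human ABC-DLBCL cells with doxycycline-inducible IκBα–green luciferase fusion and unfused red luciferase, in 0.5% FBS medium; compounds up to 46 uM, 4 h at 37C. Green/red luminescence ratio, filter-overlap corrected, fitted to concentration-response curves.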
For `CN1C(=O)NC(=O)[C@]2(Cc3ccccc3N3CCN(c4ccccc4)CC32)C1=O` (stereo partly specified), the Potency was inconclusive: 8.2 µM [falling, partial curve].
In the case of `Cc1cccc(OCC(=O)N2CCN(Cc3ccncc3)CC2)c1`, the activity change, negative = inhibition is reported as “inactive”.
In the case of `CCOc1ccc(C(=O)c2cccs2)cc1`, the activity change, negative = inhibition is reported as inconclusive: 2%.
In the case of `c1ccc2c(CN3CCCCCCC3)c[nH]c2c1`, the activity change, negative = inhibition is reported as inconclusive: -4.13%.
For `Cc1ccccc1Cc1c(C)nc2nc(SCC(=O)N3CCC4(CC3)OCCO4)nn2c1C`, the activity change, negative = inhibition was inconclusive: 24.1%.
With `NC(=O)CSc1nnc([C@@H](N)Cc2c[nH]c3ccccc23)o1` the activity change, negative = inhibition was inconclusive: 0.382%.
For `Clc1ccc(COC(Cn2ccnc2)c2ccc(Cl)cc2Cl)cc1` (stereo unspecified), the Potency was inconclusive: 11.2 µM [rising, partial curve, poor fit].
In the case of `COc1ccc2c(c1OC)C(=O)OC2C1c2cc3c(cc2CCN1C)OCO3` (stereo unspecified), the activity change, negative = inhibition is reported as inconclusive: 0.0222%.
With `CC(C)CNC(=O)C(=O)N/N=C/c1cccs1` the Potency was inconclusive: 12.6 µM [falling, partial curve].
For `O=C(Nc1ccc(-c2cn3ccsc3n2)cc1)C1CCCC1`, the activity change, negative = inhibition was inconclusive: 0.0165%.
In the case of `CN(C)c1ccc(N=Cc2c(O)n(CCC3=CCCCC3)c(=O)[nH]c2=O)cc1`, the activity change, negative = inhibition is reported as “inactive”.
With `CCn1c(O)c(/C=N/NC(=O)c2ccncc2)c(=O)n(CC)c1=S` the Potency was inconclusive: 20.6 µM [falling, partial curve].
For `CCC(C)C(NC(=O)CCCNC(=O)CCC(=O)OC1O[C@H]2OC3(C)CC[C@H]4[C@H](C)CCC(C1C)C24OO3)C(=O)O` (stereo partly specified), the activity change, negative = inhibition was “inactive”.
With `Cc1cc(C(=O)CSc2nc(N)cc(=O)[nH]2)c(C)n1CCc1ccc(F)cc1` the activity change, negative = inhibition was inconclusive: -4.88%.
With `Cc1ccc(-c2cc(C(=O)N3CCC4(CC3)OCCO4)no2)cc1` the activity change, negative = inhibition was inconclusive: 10.8%.
For `CCc1cc(=O)[nH]c(SCCCF)n1`, the activity change, negative = inhibition was “inactive”.
With `FC(F)(F)c1ccc2c(c1)nnn2C1CCN(Cc2nnnn2Cc2ccccc2)CC1` the activity change, negative = inhibition was inconclusive: 0.043%.
In the case of `CCCCCCCCCOc1ccc2[nH]cc(CCN)c2c1`, the Potency is reported as inconclusive: 25.1 µM [falling, partial curve, poor fit].
With `CCN(CC)C(=O)c1ccc(NC(=O)Nc2ccccc2F)cc1` the activity change, negative = inhibition was inconclusive: 4.98%.
For `COC(=O)c1ccc(NC(=O)CSc2nc3ccc(N4C(=O)C5C6C=CC(C6)C5C4=O)cc3s2)cc1` (stereo unspecified), the activity change, negative = inhibition was inconclusive: 0.829%.
With `CCNc1cc(N2CCNCC2)ccc1[N+](=O)[O-]` the activity change, negative = inhibition was inconclusive: -4.53%.
In the case of `Cc1ccccc1-n1c(O)c(/C=N/NC(=O)c2ccccc2O)c(=O)[nH]c1=S`, the Potency is reported as inconclusive: 6.31 µM [rising, single point].
In the case of `C[C@H]1CCCC(=O)CCCCCc2cc(O)cc(O)c2C(=O)O1`, the Potency is reported as inconclusive: 16.4 µM [falling, single point].
With `COc1ccccc1CCNCc1ccc(OC)c(OC)c1OC` the activity change, negative = inhibition was “inactive”.
With `O=C(Cn1c(=O)oc2ccccc21)NCCc1ccccc1` the activity change, negative = inhibition was inconclusive: -5.32%.
For `O=c1[nH]c(=S)n(C2CC2)c(O)c1C=NCCc1ccccc1`, the activity change, negative = inhibition was inconclusive: 5.1%.
With `Cc1cc(C(=O)OCC(=O)Nc2ccc(F)cc2)c(C)n1C1CC1` the activity change, negative = inhibition was “inactive”.
With `COP(C)(=O)c1c(C)nn(-c2ccccc2)c1C` (stereo unspecified) the activity change, negative = inhibition was inconclusive: -12%.
For `CNC(=O)Oc1ccc(-c2cn3cc(Cl)ccc3n2)cc1`, the activity change, negative = inhibition was inconclusive: -15.9%.
In the case of `O=C(CN1CCOCC1)c1ccc(Br)cc1`, the Potency is reported as inconclusive: 15.8 µM [falling, single point].
For `COC(=O)c1ccccc1NC(=O)c1ccc(Cn2cc(Cl)cn2)o1`, the activity change, negative = inhibition was inconclusive: -1.07%.
For `CC1=CC(=O)NP(=O)(Oc2ccc3ccccc3c2)N1` (stereo unspecified), the Potency was inconclusive: 35.5 µM [falling, partial curve, poor fit].
With `CSc1nc(N)c(N=Nc2ccc([As](=O)(O)O)cc2)c(=O)[nH]1` the Potency was inconclusive: 25.1 µM [falling, single point].
With `Cn1c(O)c(C(=Nc2ccccc2)SCc2ccc(Cl)cc2)c(=O)n(C)c1=O` the activity change, negative = inhibition was inconclusive: -4.67%.
For `N=Cc1c(O)n(-c2ccccc2)c(=O)n(-c2ccccc2)c1=O`, the activity change, negative = inhibition was “inactive”.
With `Cc1ccc(/C=C2/C(=O)NC(=O)N(CCc3ccc(F)cc3)C2=O)o1` the activity change, negative = inhibition was “inactive”.
In the case of `CCCCCn1c(NC(=O)c2ccco2)c(C(=O)OCC)c2nc3ccccc3nc21`, the Potency is reported as inconclusive: 29.1 µM [rising, partial curve, poor fit].
For `CC(=O)O[C@H]1CC[C@@]2(C)C(=CC[C@@H]3[C@@H]2CC[C@]2(C)C(=O)CC[C@@H]32)C1`, the activity change, negative = inhibition was “inactive”.
For `O=C1NCCN2CCCC12` (stereo unspecified), the activity change, negative = inhibition was inconclusive: -0.294%.
With `Cc1ccc(Cn2cc(C=O)c3ccccc32)cc1` the activity change, negative = inhibition was “inactive”.
In the case of `C=C(C)CN1CC[C@]23c4c5ccc(O)c4O[C@H]2c2[nH]c4ccccc4c2C[C@@]3(O)C1C5`, the Potency is reported as inconclusive: 2.24 µM [falling, full curve, poor fit].
With `O=C1NC(=O)N(c2ccc3c(c2)OCO3)C(=O)/C1=C/c1ccsc1` the activity change, negative = inhibition was “inactive”.
In the case of `CCCCc1ncc(CN2CCCC(C(=O)c3ccc(SC)cc3)C2)[nH]1` (stereo unspecified), the Potency is reported as inconclusive: 10 µM [falling, partial curve, poor fit].
For `CCN(CC)C(=O)c1ccc(NC(=S)NC(=O)CCc2ccccc2)cc1`, the activity change, negative = inhibition was “inactive”.
With `O=c1c2ccccc2nc(Cc2ccccc2)n1-c1ccccc1O` the activity change, negative = inhibition was inconclusive: -1.12%.
In the case of `Cn1c(O)c(/C=N/c2ncccn2)c(=O)n(C)c1=O`, the activity change, negative = inhibition is reported as inconclusive: 21.4%.
With `Cn1cccc1/C=C1/C(=O)NC(=O)N(Cc2ccc(F)cc2)C1=O` the activity change, negative = inhibition was inconclusive: -0.816%.
In the case of `O=c1[nH]c(=O)n(CCc2ccccc2)c(O)c1C=NCCCn1ccnc1`, the Potency is reported as inconclusive: 7.31 µM [falling, single point].
With `Cc1c(C=O)c2ccccc2n1Cc1ccccc1` the activity change, negative = inhibition was “inactive”.
For `CC1CCN2c3nc4ccccn4c(=O)c3CC3(C(=O)N(C)C(=O)N(C)C3=O)C2C1` (stereo unspecified), the Potency was inconclusive: 16.4 µM [falling, partial curve, poor fit].
In the case of `CN1C[C@H](CNC(=O)OCc2ccccc2)C[C@@H]2c3cccc4c3c(cn4C)C[C@H]21`, the Potency is reported as inconclusive: 29.1 µM [falling, partial curve, poor fit].
